Results taken from PMC5395157.
No constants are given. Whether binding was seen depends on the method and setting. Some binding calls cover weakened binding; strength is not graded here. Sequences can lack the tags named with a protein.

Target: N-terminal domain of the ferric uptake regulator (FUR) protein from E. coli, as the last domain of the TTT-FUR fusion (E. coli) (UniProt P0A9A9)
Assay: crystal structure; hanging drop vapor diffusion at 17°C, 8 mg/mL protein, well 100 mM Tris pH 8.0 and 3.5 M NaCl, no cadmium; 2.3 Å, space group C2, one molecule in the asymmetric unit; both purified

binding: binds
B1: N-terminal domain of the ferric uptake regulator (FUR) protein from E. coli, as the last domain of the TTT-FUR fusion (domain or fragment, UniProt P0A9A9 1-83)
chain: MTDNNTALKKAGLKVTLPRLKILEVLQEPDNHHVSAEDLYKRLIDMGEEIGLATVYRVLNQFDDAGIVTRHNFEGGKSVFELT
